The values below come from article PMC8547962.

By UniProt entry, the sequences of proteins in these tests, tags left out.
UniProt P0A6A8: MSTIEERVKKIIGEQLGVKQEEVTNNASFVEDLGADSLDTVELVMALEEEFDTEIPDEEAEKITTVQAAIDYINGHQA

Assay [1] concerns the target P. falciparum Isd11 with C-terminal His6 tag expressed in E. coli (P. falciparum) (UniProt Q8IEK7). Put plainly: pull-down + SEC; clarified lysate of E. coli coexpressing ∆2–50 mACP-HA2 and His-tagged Isd11; Ni-NTA pulldown of Isd11, imidazole eluate run over an S-100 size-exclusion column; Coomassie-stained SDS-PAGE and tandem MS. A general note: SEC sorts molecules by how far they enter the pores of the column.

Assay [2] has the same target. Kind of assay: co-IP + pull-down; clarified lysates of E. coli coexpressing an HA2-tagged ACP construct and Isd11-His6; anti-HA IP or Ni-NTA pulldown, western blot with anti-HA and anti-His6. On the technique in general: Immunoblotting shows a protein as a band on a membrane.

No constants are given. Whether binding was seen depends on the method and setting. Binding seen in cells or lysates may run through a third protein. For some assays here: A result given as binding can be weak or reduced; the word gives no strength.

In the case of “Endogenous E. coli acyl carrier protein (from UniProt P0A6A8 1-78)”, the binding entry in assay [1] is recorded as “no binding”.

B1: Full-length P. falciparum mACP-HA2 expressed in E. coli (protein, UniProt Q8I0V5 1-157)
chain: MRRNIIQKILFNNKNITLCNTYKRGFIQVLLKHGMNSKGIQNGFYNNKYILSAQKNSAFFSTEKSQDLSSLSKEQIEEKILTVLKKYLPPDVEIKYDEELEKYNTKDNRAWDFLDTVEFLIDIESEFNITIPDETADNIKTVQEVIDYIIQLNIKKT
Take B1: the binding result in assay [2] was “binds”.
